Assay results as given in US20050137807A1, “Method of visualization of the ADME properties of chemical substances” (priority 2003, published 2005).

Amino acid sequences for entries named in this document (tags omitted). Residues count along the entry.
UniProt P02768, 25-609: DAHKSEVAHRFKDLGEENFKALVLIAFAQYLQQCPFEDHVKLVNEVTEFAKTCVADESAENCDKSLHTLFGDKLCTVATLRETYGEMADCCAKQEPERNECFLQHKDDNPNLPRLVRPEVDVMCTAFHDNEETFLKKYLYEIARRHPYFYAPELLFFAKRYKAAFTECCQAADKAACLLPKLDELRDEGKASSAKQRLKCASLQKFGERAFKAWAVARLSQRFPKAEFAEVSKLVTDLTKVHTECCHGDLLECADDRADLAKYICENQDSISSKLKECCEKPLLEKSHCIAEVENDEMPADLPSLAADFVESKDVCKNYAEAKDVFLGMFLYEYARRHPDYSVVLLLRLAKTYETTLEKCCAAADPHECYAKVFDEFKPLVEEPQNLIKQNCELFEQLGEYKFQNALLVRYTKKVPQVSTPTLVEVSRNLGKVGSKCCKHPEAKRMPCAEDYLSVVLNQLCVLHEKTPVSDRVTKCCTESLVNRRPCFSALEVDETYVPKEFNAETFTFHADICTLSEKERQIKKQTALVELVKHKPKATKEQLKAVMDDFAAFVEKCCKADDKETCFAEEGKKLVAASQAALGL

Columns and labels:
[1] = biological target: human serum albumin (Homo sapiens, UniProt P02768); test: binding constant to human serum albumin (TRANSIL technology); conditions: log binding constant to human serum albumin
Excerpt: The effective molecular weight (MW) is obtained simply from the respective empirical formula of the substance. The waters solubilities and the typical administered dosages of these commercially available products are furthermore known from the literature.
The ADME maps in FIGS. 5 to 10 show by way of example a selection of commercially available pharmaceutical substances. The substance names and the associated experimental measurement values for their physicochemical properties are summarised in Table 1.

[2] = membrane affinity as a measure of the lipophilicity (TRANSIL technology); format: physicochemical

COC(=O)C1=C(C)NC(C)=C(C(=O)OC)C1c1ccccc1[N+](=O)[O-] [Nifedipine]
LogHSA [1]: −4.912

CCn1cc(C(=O)O)c(=O)c2cc(F)c(N3CCN(C)CC3)cc21 [Pefloxacin]
LogMA [2]: 1.519
